# In PubChem BioAssay AID2685 (National Center for Advancing Translational Sciences (NCATS), 2010):
# The list shows a part of the results. These are further read-outs of the screen, such as a control signal, another cell line or another target. No call is given for them. Most of these compounds were active or inconclusive in the main read-out, so they are no random draw. The note in brackets gives the kind of curve behind each potency; many fits are weak.
# Assay: qHTS Assay for Lipid Storage Modulators in Drosophila S3 Cells;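 for cell number change: cells counted by Cell Tracker Red CMTPX staining in the red channel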
# Details: BODIPY lipid droplet fluorescence, 18-24 h; for cell number change: measured here: cell count max response, cells fed with added oleic acid
# In short: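 Laser-scanning cytometry quantifies lipid droplet accumulation (500–530 nm total intensity; droplet/cell object ratio) in oleic acid-fed (400 uM added) Drosophila S3 cells treated with a concentration series. 20 uM Triacsin C defined 100% inhibition.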
# [1] = measured here: lipid fluorescence (Fed channel) AC50, cells fed with added oleic acid
# [2] = measured here: cell number channel AC50, cells fed with added oleic acid
Structure (SMILES),cell number change [%],AC50 [1],AC50 [2]
O=C(NCc1ccccc1F)C1CCCN1C(=O)Nc1ccccc1 (stereo not given),-4.72,"0.517 µM [rising, single point]",
CCOC(=O)c1c(NC(C)=O)sc2c(OCC(O)CN(CC)CC)c(Br)ccc12 (stereo not given),-8.39,,
CCCn1cnc2cc(NC(=O)c3cccs3)ccc21,24.7,"29.1 µM [rising, single point]",
CNC(=O)COC(=O)c1ccc(-c2nc3ccccc3s2)s1,-21.4,"29.1 µM [falling, single point]",
NC(=O)C1(c2ccccc2)OC1c1ccccc1 (stereo not given),6.07,"29.1 µM [falling, partial curve, poor fit]",
COc1ccc(NC(=O)COC(=O)c2ccc(S(=O)(=O)N3CCCCCC3)cc2)c(OC)c1,-0.257,"5.8 µM [rising, partial curve]","7.31 µM [rising, single point]"
COCCn1c(C)cc(C2=NNC(=Nc3ccc(F)cc3)SC2)c1C,37.7,"23.1 µM [rising, single point]","29.1 µM [rising, single point]"
CN1C(=O)c2ccccc2N(C)C1c1ccc2c(c1)OCO2 (stereo not given),-12.8,"14.6 µM [rising, single point]",
COc1ccc(Cn2ccnc2)cc1Br,,,"0.651 µM [rising, single point]"
O=C(OCCCOC(=O)c1ccc([N+](=O)[O-])o1)c1ccc([N+](=O)[O-])o1,5.68,"0.58 µM [falling, single point]",
O=C(N/N=C/C=C\c1ccco1)c1cccs1,-32.9,"29.1 µM [falling, single point]","29.1 µM [falling, single point]"
O=C(NC(CC(=O)N1CCN(c2ccccc2O)CC1)c1ccccc1)c1ccccc1Cl (stereo not given),-21.7,"0.00411 µM [rising, full curve, poor fit]",
CC(=O)c1cccc(NC(=O)CSc2nc(=O)n(Cc3ccccn3)c3c2CCC3)c1,,,"0.00411 µM [rising, full curve, poor fit]"
COc1ccc2c(c1)c(C(C)=O)c(C)n2C,38.9,"3.26 µM [rising, full curve]","18.4 µM [rising, partial curve]"
CC1=C(C(=O)OCCOC(C)C)C(c2cccnc2)C2=C(CCCC2=O)N1 (stereo not given),9.68,"0.411 µM [rising, full curve]",
COc1ccc(N2CCN(C(=O)Nc3ccccc3C)CC2)cc1,3.97,"0.1 µM [rising, full curve, poor fit]",
COc1ccc(-n2nc(C(=O)Nc3ccc4c(c3)OCO4)c3ccccc3c2=O)cc1,-9.94,"0.0259 µM [rising, full curve]",
CCn1c(-c2ccc(-c3ccccc3)cc2)c[nH]c1=S,-26.8,"0.58 µM [rising, full curve]","0.366 µM [rising, full curve]"
C=CCC(CC=C)(C(=O)O)c1ccccc1,-0.86,,
CC(C)(C)NC(=O)N1CCN(S(=O)(=O)c2ccc3c(c2)CCC3)CC1,-3.63,,
CN1CCN(CCCNc2c(C=O)c(=O)[nH]c3ccccc23)CC1,35.1,"29.1 µM [rising, single point]","0.92 µM [rising, full curve, poor fit]"

Structure (SMILES),cell number change [%],AC50 [1],AC50 [2]
CS(=O)(=O)N1CCN(CC2CC3C=CC2C3)CC1 (stereo not given),,"1.64 µM [falling, partial curve]",
O=S(=O)(/N=C(/Nc1cccc2ccccc12)c1ccccc1)c1ccc(Br)cc1,-26.1,"29.1 µM [falling, single point]",
Cc1nc2ccc(S(=O)(=O)NC(CC(C)C)C(=O)O)cc2s1 (stereo not given),13.5,,
Cc1cccc(C)c1-n1c(C)nn(-c2ncc(C(F)(F)F)cc2Cl)c1=O,-46.3,,
CCOC(=S)SCC(=O)Nc1nc(-c2ccc(Br)cc2)cs1,-28.3,,
CC(=O)c1cn(CC(=O)Nc2c(C)cccc2C)c2ccccc12,-21.6,"5.17 µM [falling, partial curve]",
O=C1CNC(=O)/C(=C/c2ccco2)N1,1.04,,
CCOC(=O)CC1C(=O)NCCN1C(=O)Nc1ccccc1 (stereo not given),-20.7,"3.26 µM [falling, full curve]","2.31 µM [falling, full curve, poor fit]"
O=C(Nc1ccc(N2CCCCC2)cc1)c1ccc([N+](=O)[O-])o1,,"9.2 µM [falling, partial curve]",
CN(C)S(=O)(=O)c1cccc(NC(=O)C(c2ccccc2)c2ccccc2)c1,29.3,"6.51 µM [rising, single point]",
CCOC(=O)c1c2n(c3c(NCc4ccccc4)ncnc13)CCCC2,-10.5,"29.1 µM [rising, single point]","0.00461 µM [rising, full curve, poor fit]"
Cc1ccc(CN(Cc2cccnc2)C(=O)CN2C(=O)COc3ccccc32)o1,2.51,"0.517 µM [rising, full curve, poor fit]",
Cc1cc(C)c(S(=O)(=O)N2CCN(C(=O)N3CCOCC3)CC2)c(C)c1,,"9.2 µM [falling, partial curve, poor fit]",
CCCc1ccc2oc(C(=O)N3CCCC3)c(C)c2c1,-14.7,"4.11 µM [falling, full curve, poor fit]",
Cc1ccc(NC(=O)/C=C\C(=O)O)c([N+](=O)[O-])c1,-3.7,"0.082 µM [rising, full curve, poor fit]",
Cc1nc(S(=O)(=O)Cc2ccc(Cl)cc2)nc2c1CCC2,-48.3,,
C/C(=N/NC(=O)CNC(=O)Cc1ccc(Cl)cc1)c1ccco1,22.3,,
COCC(C)n1c(COc2ccccc2F)nnc1SCc1c(C)noc1C (stereo not given),16.8,,
COc1ccc(CNS(=O)(=O)CCNC(=O)c2ccc3c(c2)OCO3)cc1,-17.4,"4.61 µM [falling, single point]",
CC(C)NC(=O)CCS(=O)(=O)c1cccc2nonc12,-97.7,,"29.1 µM [falling, single point]"

# A second format for some results above:
Structure (SMILES) | cell number change [%] | AC50 [1] | AC50 [2]
CCOC(=O)CC1C(=O)NCCN1C(=O)Nc1ccccc1 (stereo not given) | -20.7 | 3.26 µM [falling, full curve] | 2.31 µM [falling, full curve, poor fit]
O=C(Nc1ccc(N2CCCCC2)cc1)c1ccc([N+](=O)[O-])o1 |  | 9.2 µM [falling, partial curve] | 
CN(C)S(=O)(=O)c1cccc(NC(=O)C(c2ccccc2)c2ccccc2)c1 | 29.3 | 6.51 µM [rising, single point] | 
